Results from patent US20230381204A1, “COMPOSITIONS FOR TREATING INFLAMMATIONS, WOUNDS AND SCARRING” (priority 2020, published 2023).
At least one structure is not confirmed: it was looked up by name or label, or the drawing left a doubt.

Assays:
Type in all cases: cell-based, Mouse
Conditions in all cases: positive control, 10 μM; LPS-stimulated
IL-1α = test: LPS-induced IL-1α secretion in RAW 264.7 cells (ELISA)
Protocol: (§1) RAW 264.7 cells ([…] ¢/ml, by counting) were seeded in 96 well plates containing 170 μl/well of complete growth medium (See formulation section). The cells were incubated at 37° C. with 5% CO2 for 24 hr. The medium was aspirated and replaced by LPS-containing medium (25 ng/ml) with or without the Tested Samples at two different concentrations (similarly to what is presented in Table 1). In addition, Naïve cells (Group 1), vehicle treated cells (Group 2), Stimulated Control (Group 3) and Stimulated Vehicle Control (Group 4) served as negative controls. SDS (Group 5) and Dexamethasone (Group 6) served as positive controls for viability and anti-inflammatory assays, respectively. A Blank control group was included in the assay (Group 11), and subtracted from all treatments.
(§2) The cells were incubated at 37° C. with 5% CO2 for 24 hr. At the end of incubation, the viability of the cells was measured using the MTT assay, according to SOP. […] IL-1α, TNFα and IL-6 levels were measured by ELISA, according to manufacturer instructions. […]
(§3) The anti-inflammatory activity of the Tested Samples was examined in the LPS-induced inflammatory model (RAW 264.7 cells) and the secretion of three cytokines was monitored. Then, the compatibility and possible synergistic action of selected combination was determined. IL-1α, TNFα and IL-6 levels were measured by ELISA, according to manufacturer instructions.

TNFα = test: LPS-induced TNFα secretion in RAW 264.7 cells (ELISA)
IL-6 = test: LPS-induced IL-6 secretion in RAW 264.7 cells (ELISA)
Protocol: as §1, §2, §3

C[C@@H]1C[C@H]2[C@@H]3CCC4=CC(=O)C=C[C@]4(C)[C@@]3(F)[C@@H](O)C[C@]2(C)[C@@]1(O)C(=O)CO [dexamethasone]
reduced their levels: IL-1α secretion level (IL-1α) | TNFα secretion level (TNFα) | IL-6 secretion level (IL-6)
